The source of these data is publication PMC9463131, “SLITRK1-mediated noradrenergic projection suppression in the neonatal prefrontal cortex” (Communications Biology, 2022).

Chains of the proteins cited; added tags and fusions are not shown. Residues count along the entry.
UniProt P11627, residues 20-1260: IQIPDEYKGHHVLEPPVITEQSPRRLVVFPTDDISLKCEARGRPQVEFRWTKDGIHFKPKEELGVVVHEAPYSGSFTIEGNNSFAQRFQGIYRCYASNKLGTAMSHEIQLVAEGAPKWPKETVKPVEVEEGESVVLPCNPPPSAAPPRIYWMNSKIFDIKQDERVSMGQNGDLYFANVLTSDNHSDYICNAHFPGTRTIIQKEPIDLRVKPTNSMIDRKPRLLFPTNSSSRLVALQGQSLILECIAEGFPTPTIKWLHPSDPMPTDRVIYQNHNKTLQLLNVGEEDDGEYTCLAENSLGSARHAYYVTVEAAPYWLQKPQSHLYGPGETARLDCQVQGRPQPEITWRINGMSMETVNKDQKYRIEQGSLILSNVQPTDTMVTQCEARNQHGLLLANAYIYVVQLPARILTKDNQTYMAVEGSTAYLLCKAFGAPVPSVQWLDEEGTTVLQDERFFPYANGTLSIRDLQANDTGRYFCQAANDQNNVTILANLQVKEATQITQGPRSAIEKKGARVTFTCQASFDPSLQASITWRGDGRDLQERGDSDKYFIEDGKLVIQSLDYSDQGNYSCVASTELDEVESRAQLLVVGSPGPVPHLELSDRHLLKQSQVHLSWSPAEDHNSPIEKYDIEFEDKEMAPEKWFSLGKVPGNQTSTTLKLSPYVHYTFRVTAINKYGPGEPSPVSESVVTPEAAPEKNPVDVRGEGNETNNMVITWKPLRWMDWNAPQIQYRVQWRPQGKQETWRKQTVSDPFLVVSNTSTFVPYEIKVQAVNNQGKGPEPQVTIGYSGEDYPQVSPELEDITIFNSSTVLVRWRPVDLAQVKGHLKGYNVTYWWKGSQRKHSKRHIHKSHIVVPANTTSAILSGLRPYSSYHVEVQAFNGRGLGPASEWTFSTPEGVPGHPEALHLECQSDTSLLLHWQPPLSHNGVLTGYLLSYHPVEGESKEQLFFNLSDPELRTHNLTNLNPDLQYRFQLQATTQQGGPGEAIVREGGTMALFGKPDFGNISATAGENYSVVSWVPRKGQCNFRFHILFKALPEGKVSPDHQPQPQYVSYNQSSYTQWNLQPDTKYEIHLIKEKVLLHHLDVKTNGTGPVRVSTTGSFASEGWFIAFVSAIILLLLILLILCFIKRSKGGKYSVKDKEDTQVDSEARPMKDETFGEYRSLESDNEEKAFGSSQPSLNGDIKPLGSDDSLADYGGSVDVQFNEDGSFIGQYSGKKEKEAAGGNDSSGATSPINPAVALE
UniProt P13595, residues 20-1115: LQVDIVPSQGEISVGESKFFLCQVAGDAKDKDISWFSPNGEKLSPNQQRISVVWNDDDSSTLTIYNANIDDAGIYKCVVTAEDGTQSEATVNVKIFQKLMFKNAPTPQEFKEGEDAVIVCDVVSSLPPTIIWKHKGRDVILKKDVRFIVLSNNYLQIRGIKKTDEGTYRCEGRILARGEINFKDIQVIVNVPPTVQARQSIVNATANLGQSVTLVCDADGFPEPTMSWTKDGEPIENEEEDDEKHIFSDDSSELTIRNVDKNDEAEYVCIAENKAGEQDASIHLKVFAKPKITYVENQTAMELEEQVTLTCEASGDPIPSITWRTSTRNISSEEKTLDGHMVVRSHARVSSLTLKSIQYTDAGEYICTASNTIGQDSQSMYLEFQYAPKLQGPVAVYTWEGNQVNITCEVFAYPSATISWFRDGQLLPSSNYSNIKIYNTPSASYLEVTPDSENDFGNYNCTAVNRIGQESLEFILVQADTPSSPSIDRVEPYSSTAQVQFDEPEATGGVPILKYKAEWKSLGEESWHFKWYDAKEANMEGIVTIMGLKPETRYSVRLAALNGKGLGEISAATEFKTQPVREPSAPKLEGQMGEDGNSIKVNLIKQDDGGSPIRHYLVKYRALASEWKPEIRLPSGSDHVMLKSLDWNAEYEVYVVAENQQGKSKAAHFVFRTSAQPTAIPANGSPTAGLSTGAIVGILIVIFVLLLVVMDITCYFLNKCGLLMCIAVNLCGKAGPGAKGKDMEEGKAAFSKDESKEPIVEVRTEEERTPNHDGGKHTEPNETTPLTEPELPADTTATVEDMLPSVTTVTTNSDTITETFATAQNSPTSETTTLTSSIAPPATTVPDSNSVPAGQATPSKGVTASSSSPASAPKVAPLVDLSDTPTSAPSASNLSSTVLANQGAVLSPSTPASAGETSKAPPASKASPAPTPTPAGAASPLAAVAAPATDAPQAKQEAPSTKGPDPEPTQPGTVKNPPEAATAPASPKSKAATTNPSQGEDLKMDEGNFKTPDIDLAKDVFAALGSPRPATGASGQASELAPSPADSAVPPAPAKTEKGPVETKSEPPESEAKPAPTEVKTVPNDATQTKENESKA

The target in the assay is T1, Slitrk1 (endogenous, mouse brain) (mouse (endogenous in mouse brain)) (UniProt Q810C1).
T1 sequence: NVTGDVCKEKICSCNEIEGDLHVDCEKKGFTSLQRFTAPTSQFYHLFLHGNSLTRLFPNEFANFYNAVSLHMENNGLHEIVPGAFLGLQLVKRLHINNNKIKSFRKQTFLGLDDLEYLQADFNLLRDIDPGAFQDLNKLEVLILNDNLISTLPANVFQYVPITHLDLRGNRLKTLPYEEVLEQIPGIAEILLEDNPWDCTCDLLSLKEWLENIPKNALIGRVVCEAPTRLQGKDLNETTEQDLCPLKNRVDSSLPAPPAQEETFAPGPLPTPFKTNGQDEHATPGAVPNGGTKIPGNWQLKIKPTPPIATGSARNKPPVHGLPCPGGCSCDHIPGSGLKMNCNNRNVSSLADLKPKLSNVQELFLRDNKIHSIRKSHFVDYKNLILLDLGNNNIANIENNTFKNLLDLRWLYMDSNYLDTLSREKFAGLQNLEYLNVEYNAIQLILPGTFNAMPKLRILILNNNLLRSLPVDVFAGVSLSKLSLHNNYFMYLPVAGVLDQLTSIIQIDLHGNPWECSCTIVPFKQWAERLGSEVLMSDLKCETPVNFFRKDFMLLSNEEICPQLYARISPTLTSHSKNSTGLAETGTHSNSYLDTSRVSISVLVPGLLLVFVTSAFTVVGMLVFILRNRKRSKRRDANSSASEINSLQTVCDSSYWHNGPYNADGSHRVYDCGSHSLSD
The assay can be described thus: affinity purification with mass spectrometry; mouse brain membrane fraction lysed in PBS with 0.5% Triton X-100; anti-SLITRK1 C-terminus rabbit antibody or normal rabbit IgG overnight at 4 °C, protein G agarose; 200 kDa and 100 kDa CBB-stained bands excised, MALDI-TOF MS.

Results are given in words; binding and its absence hold for the method and conditions named. In cells and extracts the contact can be indirect. Here binding means that the protein was enriched with, or labelled near, the bait; the list need not be complete.

“L1CAM (endogenous, mouse brain) (from UniProt P11627 20-1260)”: the binding result is “binds”.
For the molecule “neural cell adhesion molecule (NCAM) (endogenous, mouse brain) (from UniProt P13595 20-1115)”, the binding entry is on record as “binds”.

B1: Dynamin1 (endogenous, mouse brain) (protein, UniProt P39053 1-867)
chain: MGNRGMEDLIPLVNRLQDAFSAIGQNADLDLPQIAVVGGQSAGKSSVLENFVGRDFLPRGSGIVTRRPLVLQLVNSTTEYAEFLHCKGKKFTDFEEVRLEIEAETDRVTGTNKGISPVPINLRVYSPHVLNLTLVDLPGMTKVPVGDQPPDIEFQIRDMLMQFVTKENCLILAVSPANSDLANSDALKIAKEVDPQGQRTIGVITKLDLMDEGTDARDVLENKLLPLRRGYIGVVNRSQKDIDGKKDITAALAAERKFFLSHPSYRHLADRMGTPYLQKVLNQQLTNHIRDTLPGLRNKLQSQLLSIEKEVDEYKNFRPDDPARKTKALLQMVQQFAVDFEKRIEGSGDQIDTYELSGGARINRIFHERFPFELVKMEFDEKELRREISYAIKNIHGIRTGLFTPDMAFETIVKKQVKKIREPCLKCVDMVISELISTVRQCTKKLQQYPRLREEMERIVTTHIREREGRTKEQVMLLIDIELAYMNTNHEDFIGFANAQQRSNQMNKKKTSGNQDEILVIRKGWLTINNIGIMKGGSKEYWFVLTAENLSWYKDDEEKEKKYMLSVDNLKLRDVEKGFMSSKHIFALFNTEQRNVYKDYRQLELACETQEEVDSWKASFLRAGVYPERVGDKEKASETEENGSDSFMHSMDPQLERQVETIRNLVDSYMAIVNKTVRDLMPKTIMHLMINNTKEFIFSELLANLYSCGDQNTLMEESAEQAQRRDEMLRMYHALKEALSIIGDINTTTVSTPMPPPVDDSWLQVQSVPAGRRSPTSSPTPQRRAPAVPPARPGSRGPAPGPPPAGSALGGAPPVPSRPGASPDPFGPPPQVPSRPNRAPPGVPSLGAWRLNSPQGKHENRAGKARL
As for B1, the binding entry is recorded as “binds”.

B2: Neurofascin (endogenous, mouse brain) (protein, UniProt Q810U3 25-1240)
chain: IEIPMDPSIQNELTQPPTITKQSVKDHIVDPRDNILIECEAKGNPAPSFHWTRNSRFFNIAKDPRVSMRRRSGTLVIDFRSGGRPEEYEGEYQCFARNKFGTALSNRIRLQVSKSPLWPKENLDPVVVQEGAPLTLQCNPPPGLPSPVIFWMSSSMEPITQDKRVSQGHNGDLYFSNVMLQDMQTDYSCNARFHFTHTIQQKNPFTLKVLTTRGVAERTPSFMYPQGTSSSQMVLRGMDLLLECIASGVPTPDIAWYKKGGDLPSNKAKFENFNKALRITNVSEEDSGEYFCLASNKMGSIRHTISVRVKAAPYWLDEPKNLILAPGEDGRLVCRANGNPKPTVQWMVNGEPLQSAPPNPNREVAGDTIIFRDTQISSRAVYQCNTSNEHGYLLANAFVSVLDVPPRMLSARNQLIRVILYNRTRLDCPFFGSPIPTLRWFKNGQGSNLDGGNYHVYENGSLEIKMIRKEDQGIYTCVATNILGKAENQVRLEVKDPTRIYRMPEDQVAKRGTTVQLECRVKHDPSLKLTVSWLKDDEPLYIGNRMKKEDDSLTIFGVAERDQGSYTCMASTELDQDLAKAYLTVLADQATPTNRLAALPKGRPDRPRDLELTDLAERSVRLTWIPGDDNNSPITDYVVQFEEDQFQPGVWHDHSRFPGSVNSAVLHLSPYVNYQFRVIAVNEVGSSHPSLPSERYRTSGAPPESNPSDVKGEGTRKNNMEITWTPMNATSAFGPNLRYIVKWRRRETRETWNNVTVWGSRYVVGQTPVYVPYEIRVQAENDFGKGPEPDTIIGYSGEDLPSAPRRFRVRQPNLETINLEWDHPEHPNGILIGYILRYVPFNGTKLGKQMVENFSPNQTKFSVQRADPVSRYRFSLSARTQVGSGEAATEESPAPPNEATPTAAPPTLPPTTVGTTGLVSSTDATALAATSEATTVPIIPTVVPTTVATTIATTTTTTAATTTTTTTESPPTTTAGTKIHETAPDEQSIWNVTVLPNSKWANITWKHNFRPGTDFVVEYIDSNHTKKTVPVKAQAQPIQLTDLFPGMTYTLRVYSRDNEGISSTVITFMTSTAYTNNQADIATQGWFIGLMCAIALLVLILLIVCFIKRSRGGKYPVREKKDVPLGPEDPKEEDGSFDYSDEDNKPLQGSQTSLDGTIKQQESDDSLVDYGEGGEGQFNEDGSFIGQYTVKKDKEETEGNESSEATSPVNAIYSLA
B2: the binding result is on record as “binds”.
